# Library screen at single concentrations

The values are deposited in ChEMBL (CHEMBL3988442, “University of Dundee, Small-Polar-MMV Screening Library” (2021)).

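Whole-parasite assay of Trypanosoma brucei over 72 hours; the read-out is not stated. Concentration: 30 µM. The record gives no direction; compounds that gave an IC50 in retests scored well above the rest, so higher reads as stronger inhibition. Values scatter widely below zero; nearly all retest evidence comes from the higher of the two concentrations used. About 64,000 compounds were tested under these conditions; 1.5% (about 940) showed 50% or more at least once.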

The filed quantity is “Percent Effect” (%).
How 0% and 100% were set is not recorded. Most values in the screen are low, and negative values occur.
The compounds are a random part of those screened.

CCC(C(=O)NCc1ccccn1)N(c1cccc(C)c1)S(C)(=O)=O (stereo not given) gave 11.17%. With NC(=O)NC(=O)CCn1ccc(-c2ccsc2)n1 the screen gave -80.67%. Result for Cn1cc(CN2CCCC3(CCN(C(=O)c4cnccn4)C3)C2)cn1.O=C(O)C(F)(F)F.O=C(O)C(F)(F)F (stereo not given) was -11.09%. For CN1CCN(c2cc(Sc3cccs3)nc(N)n2)CC1CCO (stereo not given) the result was -32.24%. Result for COC(=O)N1CCCC(C(=O)N(C)C)C1 (stereo not given) was 15.29%. For Cc1nc2ccccc2n1Cc1cc(C(=O)N(C)C2CCOC2)n[nH]1 (stereo not given) the result was -10.96%.

For O=C(c1cccnc1SCc1ccccc1)N1CCOCC1 the result was -9.991%. O=C(c1ccc2c(c1)OCO2)N1CCCSCC1CN1CCCC1 (stereo not given) read 30.77%. CN1CC(c2cc(O)nc(NCc3cccc(F)c3)n2)CC1=O (stereo not given) gave 7.008%. O=C(CCCn1cncn1)NC1CCc2nccn2C1 (stereo not given) gave -16.57%. Cc1nc2c(c(=O)n1C)CCN(Cc1cc3ccccc3[nH]1)CC2 read 15.69%. For CS(=O)(=O)NCCCNC(=O)c1cnc(-c2ccsc2)s1 the result was -7.977%.

Cl.Cn1ccnc1C1(O)CCN(C(=O)CCc2ccccc2)CC1 read 4%. Cn1cc(C2CCCN2CC(=O)N(CCC#N)Cc2ccco2)cn1 (stereo not given) gave 1.713%. CCCn1cnnc1CNCc1c[nH]nc1-c1ccc(F)cc1 gave -11.27%. CNC(=O)NCC1CCC2(CCN(C(=O)c3cccnc3)CC2)CO1.O=C(O)C(F)(F)F (stereo not given) read -94.84%. With Cc1cnn(C2CCCN(C(=O)c3ccc(Cn4ccnc4)cc3)C2)c1 (stereo not given) the screen gave -16.65%. CCc1ccc(C(C)NCc2nccn2Cc2ccccc2)o1 (stereo not given) gave -3.308%.

Cc1cnc(C)c(N2CCC(c3nnc(CN(C)C)n3C3CC3)CC2)n1 read -13.44%. CCOC(=O)c1n[nH]cc1-c1cncn1CCn1nc(C)c(C)c1C.Cl gave -11.29%. With COc1cccc2ccn(CCC(=O)N3CCCC(C(=O)O)C3)c12 (stereo not given) the screen gave 11.58%. For CCCn1nnc(NCc2cc(Br)cc(Br)c2OC)n1 the result was -16.88%. With COC1(CNS(=O)(=O)c2ccccc2Cl)CCSC1 (stereo not given) the screen gave -19.37%. O=C(O)C(F)(F)F.O=C1CC2(CCN(CC3CC3)C2)CN1c1cccc(F)c1 (stereo not given) read -26.98%.

Result for CC(Oc1ccccc1C(F)(F)F)C(=O)NCC(N)=O (stereo not given) was 8.039%. With FC(F)(F)c1csc(N2CCN(Cc3ccccn3)CC2)n1 the screen gave -14.1%. CSc1ccc(NC(=O)COCc2ccccc2)nc1 read -94.19%. COCCNC(=O)Cn1cc(NC(=O)c2cc(Cl)c(Cl)n2C)cn1 read 8.797%. With CC(Cn1cccn1)NC(=O)N1CCN(Cc2cccs2)CC1 (stereo not given) the screen gave -25.86%. COCC(=O)N1CCc2[nH]c(=O)ccc2C1 gave -44.48%.

CCc1nc(NC(=O)N(C)Cc2ccoc2)nn1C gave 5.492%. With CCC[C@H]1CN(S(=O)(=O)c2ccc(CC)s2)C[C@@H]1N the screen gave -41.28%. CN(Cc1cnccn1)CC1CCOc2ccccc2C1 (stereo not given) gave 3.09%. Result for COc1ccc(CN2CCCCC2CNC(=O)OC(C)(C)C)cc1F (stereo not given) was -8.015%. OCCN1CCN(CC(O)c2cc(Cl)ccc2Cl)CC1 (stereo not given) read -59.74%. Result for Cc1cnn(CC2CCCCN2C(=O)c2c(C)noc2C)c1 (stereo not given) was -27.84%.

CC(C#N)CSc1ccccc1NCC(=O)Nc1ccccc1 (stereo not given) read -102.6%. CC(C)n1nccc1CN1Cc2nccn2CC1c1ccccc1 (stereo not given) read -5.415%. CC(C)(C)c1n[nH]c(C2CN(C(=O)CCc3cscn3)CCO2)n1 (stereo not given) gave -9.491%. For [H][C@@]12CCN(Cc3cnn(C)c3)C[C@@]1([H])O[C@@H](c1nc(C)cs1)C2 the result was -28.16%. For CC(C)C(=O)N1CCC2(CC1)NC(=O)c1ccccc12.Cl the result was -57.33%. Result for Cc1cnn(C2CN(CC(O)Cn3cccn3)C2)c1 (stereo not given) was -65.71%.

CC(=O)c1cccc(CN2CC(Oc3ccccc3C)C2)c1 gave 3.107%. Result for [H][C@@]12OCCC[C@]1([H])N(C(=O)c1cccc(C)n1)C[C@@H]2NS(C)(=O)=O was 8.398%. O=C(O)C(F)(F)F.[H][C@]12CCC(=O)N(c3ccccc3)[C@@]1([H])CCN2C(=O)c1ccc(C)nc1 read -23.77%. [H][C@@]12CS(=O)(=O)C[C@]1([H])N(C(=O)c1cc(C(C)C)on1)CCN2CC1CC1 gave -38.04%. Cc1nc(CN2CCN(CC(=O)Nc3c(C)cccc3C)CC2)no1 gave -0.2885%. [H][C@@]12CCCN1C[C@@H](CCSC)N(Cc1cnn(C=C)c1C)C2 read 16.22%.

CCn1c2c(ccc1=O)CC(NCc1cnn(C)c1)CC2 (stereo not given) read -9.776%. COc1ccc(C2=Nn3c(CCCN)nnc3-c3ccccc3C2)cc1 read -10.23%. O=C(NC1CC1)c1cc2c(nc1O)CC(c1cccs1)CC2=O (stereo not given) gave -22.06%. Result for CC(=O)NCc1nc(Cc2cccc(Cl)c2)nn1C1CCN(C)CC1 was -16.19%. Cl.NC(CC1CCCCC1)c1ccccc1 (stereo not given) read -24.6%. O=C(O)C(F)(F)F.O=C(O)C(F)(F)F.[H][C@@]12OCCN(C3CCCC3)[C@@]1([H])CC[C@H]2Oc1cccnc1 read -7.927%.

COc1ncc(C(=O)N(Cc2cnn(C)c2)C(C)C)cn1 gave -21.03%.

For reference, 5 entries once more:

compound,percent effect
CCC(C(=O)NCc1ccccn1)N(c1cccc(C)c1)S(C)(=O)=O (stereo not given),11.17%
OCCN1CCN(CC(O)c2cc(Cl)ccc2Cl)CC1 (stereo not given),-59.74%
O=C(O)C(F)(F)F.O=C1CC2(CCN(CC3CC3)C2)CN1c1cccc(F)c1 (stereo not given),-26.98%
CCCn1cnnc1CNCc1c[nH]nc1-c1ccc(F)cc1,-11.27%
O=C(O)C(F)(F)F.O=C(O)C(F)(F)F.[H][C@@]12OCCN(C3CCCC3)[C@@]1([H])CC[C@H]2Oc1cccnc1,-7.927%